Measurements: US9353144B2, “Vascular leakage inhibitor” (INDUSTRY-ACADEMIC COOPERATION FOUNDATION, YONSEI UNIVERSITY, priority 2011, dated 2016)
Some results were stated once for a whole list of compounds, not compound by compound. At least one compound was matched to its structure with a doubt left.

Tested on: HRECs (Human Retinal Endothelial Cells)
Test: Screening based on change in cytoskeleton: VEGF-induced actin stress fibers, rhodamine phalloidin staining
Assay type: cell-based
Settings: confluent HRECs pretreated with 10 μg/mL compound for 1 hour before 20 ng/ml VEGF; FIGS. 4 and 5
Description: Confluent HRECs were pretreated with the compounds (10 μg/mL) for 60 minutes before treating with 20 ng/mL VEGF. The cells were then stained with rhodamine phalloidin.
Human retinal endothelial cells (HRECs) purchased from Cell Systems (USA) were seeded on a 100 mm culture dish containing EGM medium (Life Technologies, USA) containing 20% (w/v) fetal bovine serum (FBS, HyClone, Canada), 100 units/mL penicillin (Invitrogen, USA), 100 μg/mL streptomycin (Invitrogen, USA), 3 ng/mL fibroblast growth factor (Upstate Biotechnology, USA) and 5 units/mL heparin and cultured in a 5% CO2 incubator at 37° C.
It is known that the change in the actin structure of the cytoskeleton is closely related with the permeability of vascular endothelial cells. Increased permeability of vascular endothelial cells leads to an increase in actin stress fibers and a decrease in cortical actin ring structures. Based on this, the ability to inhibit vascular endothelial permeability of the synthesized derivatives of Rk1 was screened. Confluent HRECs were pretreated with […] the synthesized compounds for 1 hour before the treatment with 20 ng/ml VEGF (Upstate Biotechnology). Then, the cells were fixed with 4% paraformaldehyde for 20 minutes at room temperature, and washed 3 times with PBS (pH 7.4). […] Then, the cells were observed under a fluorescence microscope (Olympus).

CC(=O)OC[C@H]1OC(O[C@H]2CC[C@@]3(C)C(=CCC4C3CC[C@@]3(C)C4CC[C@@H]3/C(C)=N/O)C2)C=C[C@@H]1OC(C)=O (some centres unmarked) [Sac-1020]
ability to inhibit the formation of actin stress fibers induced by VEGF: had an ability to inhibit the formation of actin stress fibers

CO/N=C(\C)[C@H]1CCC2C3CC=C4C[C@@H](OC5C=C[C@H](OC(C)=O)[C@@H](COC(C)=O)O5)CC[C@]4(C)C3CC[C@@]21C (some centres unmarked) [Sac-1012]
ability to inhibit the formation of actin stress fibers induced by VEGF: had an ability to inhibit the formation of actin stress fibers
